According to paper doi:10.1101/2023.03.08.531807:
Like-named read-outs stand apart in the source and are kept apart here. Results are given in words; binding and its absence hold for the method and conditions named. In cells and extracts the contact can be indirect. Here binding means that the protein was enriched with, or labelled near, the bait; the list need not be complete.

Chains of the proteins cited; added tags and fusions are not shown.
UniProt Q80WG5: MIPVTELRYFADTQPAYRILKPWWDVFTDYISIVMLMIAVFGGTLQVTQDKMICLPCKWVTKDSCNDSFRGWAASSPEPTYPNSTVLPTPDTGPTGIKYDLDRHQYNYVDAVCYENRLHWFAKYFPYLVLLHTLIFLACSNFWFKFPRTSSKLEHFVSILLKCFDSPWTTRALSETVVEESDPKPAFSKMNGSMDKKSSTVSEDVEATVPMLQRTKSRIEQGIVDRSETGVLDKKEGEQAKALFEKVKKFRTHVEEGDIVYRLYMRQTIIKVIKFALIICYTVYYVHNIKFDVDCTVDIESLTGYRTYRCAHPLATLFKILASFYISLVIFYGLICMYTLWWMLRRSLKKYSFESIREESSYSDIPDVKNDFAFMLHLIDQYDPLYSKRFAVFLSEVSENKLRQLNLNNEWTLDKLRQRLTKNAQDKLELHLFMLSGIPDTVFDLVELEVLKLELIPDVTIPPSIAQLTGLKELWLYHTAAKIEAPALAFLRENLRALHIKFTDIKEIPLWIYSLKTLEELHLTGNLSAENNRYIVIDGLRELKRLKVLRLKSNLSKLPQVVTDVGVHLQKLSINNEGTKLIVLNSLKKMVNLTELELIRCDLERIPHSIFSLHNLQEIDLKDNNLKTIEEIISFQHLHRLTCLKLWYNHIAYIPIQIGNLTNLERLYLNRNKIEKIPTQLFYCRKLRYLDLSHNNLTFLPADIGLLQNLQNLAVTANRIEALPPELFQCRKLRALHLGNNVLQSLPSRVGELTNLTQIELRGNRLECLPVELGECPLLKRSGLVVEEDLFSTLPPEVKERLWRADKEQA
UniProt Q8BGR2: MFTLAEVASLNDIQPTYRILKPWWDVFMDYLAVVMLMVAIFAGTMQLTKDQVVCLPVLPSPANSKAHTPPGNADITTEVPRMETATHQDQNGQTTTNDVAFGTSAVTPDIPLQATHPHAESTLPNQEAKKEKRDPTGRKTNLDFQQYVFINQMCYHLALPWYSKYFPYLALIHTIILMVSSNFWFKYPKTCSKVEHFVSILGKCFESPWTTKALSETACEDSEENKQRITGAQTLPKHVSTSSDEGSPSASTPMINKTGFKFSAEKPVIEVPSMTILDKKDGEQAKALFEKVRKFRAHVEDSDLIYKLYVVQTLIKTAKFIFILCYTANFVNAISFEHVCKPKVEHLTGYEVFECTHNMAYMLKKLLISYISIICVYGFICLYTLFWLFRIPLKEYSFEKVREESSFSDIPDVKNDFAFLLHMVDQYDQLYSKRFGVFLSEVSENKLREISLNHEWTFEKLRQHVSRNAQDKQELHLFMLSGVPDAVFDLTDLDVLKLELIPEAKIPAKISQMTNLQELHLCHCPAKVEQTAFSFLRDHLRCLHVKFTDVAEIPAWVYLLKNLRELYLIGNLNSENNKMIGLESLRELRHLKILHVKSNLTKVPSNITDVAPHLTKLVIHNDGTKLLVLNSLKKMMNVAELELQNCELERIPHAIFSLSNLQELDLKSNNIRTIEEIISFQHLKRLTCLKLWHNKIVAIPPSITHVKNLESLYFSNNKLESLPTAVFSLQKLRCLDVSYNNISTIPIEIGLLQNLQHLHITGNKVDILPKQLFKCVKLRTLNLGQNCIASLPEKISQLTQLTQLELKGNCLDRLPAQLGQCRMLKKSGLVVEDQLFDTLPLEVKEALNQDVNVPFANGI
UniProt Q9WTI7: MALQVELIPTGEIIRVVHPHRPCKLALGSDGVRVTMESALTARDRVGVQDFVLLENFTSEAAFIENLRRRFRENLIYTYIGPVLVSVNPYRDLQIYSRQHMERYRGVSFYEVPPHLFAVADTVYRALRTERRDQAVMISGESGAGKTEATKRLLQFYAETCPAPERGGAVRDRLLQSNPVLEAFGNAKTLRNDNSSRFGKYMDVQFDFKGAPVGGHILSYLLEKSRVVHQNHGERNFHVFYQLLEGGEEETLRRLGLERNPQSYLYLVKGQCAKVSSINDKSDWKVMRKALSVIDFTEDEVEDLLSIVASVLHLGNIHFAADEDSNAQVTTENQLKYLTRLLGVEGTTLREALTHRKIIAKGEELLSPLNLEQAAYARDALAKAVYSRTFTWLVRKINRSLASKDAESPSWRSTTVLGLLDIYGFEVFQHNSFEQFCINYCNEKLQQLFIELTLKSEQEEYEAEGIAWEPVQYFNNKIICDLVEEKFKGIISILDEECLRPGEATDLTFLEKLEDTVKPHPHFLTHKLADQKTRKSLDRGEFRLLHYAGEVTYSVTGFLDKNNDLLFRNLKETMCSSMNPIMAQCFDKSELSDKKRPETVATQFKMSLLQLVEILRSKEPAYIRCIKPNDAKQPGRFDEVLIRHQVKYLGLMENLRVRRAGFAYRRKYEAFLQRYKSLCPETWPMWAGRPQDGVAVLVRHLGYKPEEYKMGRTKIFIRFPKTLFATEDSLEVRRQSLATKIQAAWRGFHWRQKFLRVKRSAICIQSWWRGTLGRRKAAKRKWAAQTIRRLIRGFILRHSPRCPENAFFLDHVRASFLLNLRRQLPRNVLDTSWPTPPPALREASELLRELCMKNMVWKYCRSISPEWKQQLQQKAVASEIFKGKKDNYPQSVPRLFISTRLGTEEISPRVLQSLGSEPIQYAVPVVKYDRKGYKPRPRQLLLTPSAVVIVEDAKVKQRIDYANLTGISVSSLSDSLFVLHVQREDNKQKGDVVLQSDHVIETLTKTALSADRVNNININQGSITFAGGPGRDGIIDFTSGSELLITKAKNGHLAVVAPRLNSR
UniProt P97434: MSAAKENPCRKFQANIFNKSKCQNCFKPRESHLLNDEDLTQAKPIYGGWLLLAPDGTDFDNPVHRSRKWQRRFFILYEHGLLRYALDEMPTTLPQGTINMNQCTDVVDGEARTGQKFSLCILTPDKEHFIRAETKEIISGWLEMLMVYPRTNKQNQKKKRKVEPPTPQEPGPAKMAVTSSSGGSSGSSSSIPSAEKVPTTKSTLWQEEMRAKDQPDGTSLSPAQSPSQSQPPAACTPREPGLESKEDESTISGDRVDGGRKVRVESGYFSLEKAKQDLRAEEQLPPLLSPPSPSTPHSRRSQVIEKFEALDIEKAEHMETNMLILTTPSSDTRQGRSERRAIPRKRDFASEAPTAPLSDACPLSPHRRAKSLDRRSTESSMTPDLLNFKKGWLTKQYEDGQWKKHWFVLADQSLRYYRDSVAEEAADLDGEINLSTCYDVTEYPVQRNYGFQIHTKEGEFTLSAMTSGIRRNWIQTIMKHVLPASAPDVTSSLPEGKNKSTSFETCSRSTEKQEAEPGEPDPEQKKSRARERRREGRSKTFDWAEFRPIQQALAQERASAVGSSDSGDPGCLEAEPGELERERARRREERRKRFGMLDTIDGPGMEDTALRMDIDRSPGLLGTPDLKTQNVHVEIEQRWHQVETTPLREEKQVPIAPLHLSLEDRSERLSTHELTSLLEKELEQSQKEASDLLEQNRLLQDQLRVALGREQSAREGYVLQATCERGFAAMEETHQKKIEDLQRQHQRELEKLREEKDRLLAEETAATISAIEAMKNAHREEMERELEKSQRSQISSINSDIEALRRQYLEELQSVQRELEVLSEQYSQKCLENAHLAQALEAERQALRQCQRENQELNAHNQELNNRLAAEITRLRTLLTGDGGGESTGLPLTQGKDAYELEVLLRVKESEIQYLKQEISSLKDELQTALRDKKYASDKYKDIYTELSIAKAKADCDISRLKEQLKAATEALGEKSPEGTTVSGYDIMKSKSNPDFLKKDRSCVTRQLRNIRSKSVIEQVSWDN

How the values were obtained:
[1] = molecular target: LRRC8A (endogenous, vascular smooth muscle cells) (mouse (endogenous in VSMCs)) (UniProt Q80WG5); test: affinity purification with mass spectrometry
[2] = molecular target: LRRC8A (endogenous, vascular smooth muscle cells) (mouse (endogenous in VSMCs)) (UniProt Q80WG5); test: affinity purification with mass spectrometry; remark: listed apart in the source

Row | Molecule | binding [1] | binding [2]
1 | LRRC8D (endogenous, vascular smooth muscle cells) (from UniProt Q8BGR2 1-859) | binds | –
2 | Myo1c (endogenous, vascular smooth muscle cells) (from UniProt Q9WTI7 1-1063) | binds | –
3 | Myosin Phosphatase Rho-Interacting Protein (MPRIP), endogenous in vascular smooth muscle cells (from UniProt P97434 1-1024) | binds | –
4 | Myo1d (endogenous, vascular smooth muscle cells) (protein, UniProt Q5SYD0 1-1006) MAEQESLEFGKADFVLMDTVSMPEFMANLRLRFEKGRIYTFIGEVVVSVNPYKVLNIYGRDTVEQYKGRELYERPPHLFAIADAAYKAMKRRSKDTCIMISGESGAGKTEASKYIMQYIAAITNPSQRAEIERVKNMLLKSNCVLEAFGNAKTNRNDNSSRFGKYMDINFDFKGDPIGGHINNYLLEKSRVIVQQPGERSFHSFYQLLQGGSEQMLHSLHLQKSLSSYNYIRVGAQLKSSINDAAEFKVVADAMKVIGFKPEEIQTVYKILAVILHLGNLKFIVDGDTPLIENGKVVSVIAELLSTKADMVEKALLYRTVATGRDIIDKQHTEQEASYGRDAFAKAIYERLFCWIVTRINDIIEVKNYDTTIHGKNTVIGVLDIYGFEIFDNNSFEQFCINYCNEKLQQLFIQLVLKQEQEEYQREGIPWKHIDYFNNQIIVDLVEQQHKGIIAILDDACMNVGKVTDGMFLEALNSKLGKHGHFSSRKTCASDKILEFDRDFRIRHYAGDVVYSAIGFIDKNKDTLFQDFKRLMYNSSNPVLKNMWPEGKLSITEVTKRPLTAATLFKNSMIALVDNLASKEPYYVRCIKPNDKKSPQIFDDERCRHQVEYLGLLENVRVRRAGFAFRQTYEKFLHRYKMISEFTWPNHDLPSDKEAVKKLIERCGFQDDVAYGKSKIFIRTPRTLFTLEELRAQMLVRVVLFLQKVWRGTLARMRYKRTKAALTIIRYYRRYKVKSYIHEVARRFHGVKNMRDYGKHVKWPTPPKVLRRFEEALQSIFNRWRASQLIKTIPASDLPQVRAKVAAMEMLKGQRADLGLQRAWEGNYLASKPDTPQTSGTFVPVANELKRKDKYMNVLFSCHVRKVNRFSKVEDRAIFVTDRHLYKMDPTKQYKVMKTIPLYNLTGLSVSNGKDQLVVFHTKDNKDLIVCLFSKQPTHESRIGELVGVLVNHFKSEKRHLQVNVTNPVQCSLHGKKCTVSVETRLNQPQPDFTKNRSGFILSVPGN | – | binds
